Measurements reported in patent publication US20080275105A1, “Selective Muscle Relaxant and Pharmaceutical Compositions” (UNIVERSIDADE FEDERAL DO RIO DE JANEIROUFRJ, priority 2004, published 2008).
Some of these results come from one statement about several compounds together.

System: aorta rings with no preserved endothelium
Assay: Phenylephrine-induced contracture in aorta rings without endothelium
Assay type: cell-based, rat
Conditions: phenylephrine 10 μM
Method: Once the experiments have been carried out, the findings were subject to statistical analyses being expressed in average ±SEM as a percentage of the control value, and graphs were drawn up using the Sigma Plot 5.0 program to represent the data obtained. For the statistical analysis of the effects on the different muscle tissues, the difference was assessed among the concentrations of the same derivative, using the “t” Student test. In order to ascertain the difference among the derivatives, the one-way ANOVA test was used. The differences were considered as significant for p<0.05. The Cl50 was expressed as an average ±SEM of the values obtained for each experiment through non-linear regression based on the y=yo+ae^−bx equation. […]
After stabilizing the preparation, approximately 120 minutes, the Experiment Protocol began. […] For the purpose of comparing the potency of some of the L294 analogs, the Cl50 was determined for each experiment using the y=yo+ae^−bx equation and their mean was used for the statistical analysis.
The importance of the presence of vascular endothelium in the vasodilatory action of the L294 analogs was assessed in experiments in which these cells were removed mechanically. […] When the findings of the experiments without the endothelium were analyzed as a whole, the absence of the L790 effect was confirmed. […]

## Cc1ccc(/C=N/NC(=O)c2ccc3c(c2)OCO3)s1 [L787, 1,3-Benzodioxol-5-carboxylic acid, [1-(5-methyl-thiophene-2-yl)-meth-(E)-ylidene]-hydrazide]
  maximum relaxation of phenylephrine contracture, without endothelium: less than 50 % of the control
